{"source": "PubChem BioAssay AID624291", "about": "(National Center for Advancing Translational Sciences (NCATS), 2012)", "note": "The whole screen tested about 350,000 compounds, of which about 220 (0.063%) were called active. Inconclusive results, whose numbers are uncertain, are shown with a selection of clear calls. Calls follow the shape of the dose curve; as a rule, active = well fitted activation curve with a large enough effect; inconclusive = small, poorly fitted or top-dose-only effect; inactive = no such curve, though single readings can be large or run the other way. Potencies of inconclusive entries are doubtful fits and often do not repeat. Potency is read from the fitted curve at half-maximal effect."}
{"experiment": "qHTS for Activators of Integrin-Mediated Alleviation for Muscular Dystrophy; also: nearly all actives have a fitted effect of over 60% in size;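 as to activation: 100% = response of the positive control SU9516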", "conditions": "alpha7betagal myoblasts, beta-gal FDG fluorescence, 48 h; activation: at 38.3 µM (top of the series)", "procedure,_shortened": "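Alpha7betagal+/- myoblasts (passage 13) were plated 16-24 hr, then exposed to compounds (1:260 dilution of DMSO stock) for 48 hours at 37C. After MPER lysis, β-galactosidase reporter activity was read as FDG fluorescence (ex 480/em 540) after 30 minutes.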"}
{"molecule": "O=C(CCN1CCN(Cc2ccccc2)CC1)Nc1cccc(Br)c1", "Potency": "inconclusive: 12.6 µM [activator, single point]"}
{"molecule": "CCOC(=O)C1(CCCc2ccccc2)CCN(C(=O)CN2CCOC2=O)CC1", "activation": "inactive: -46.3%"}
{"molecule": "O=C(Nc1ccc(F)cc1)C1CCCN(c2cnccn2)C1", "note": "(stereo not drawn)", "Potency": "inconclusive: 10 µM [activator, single point]"}
{"molecule": "CCCc1nc(SCC(=O)c2ccccc2)c2c(=O)n(C)c(=O)n(C)c2n1", "activation": "inactive: 8.99%"}
{"molecule": "COC(=O)C(NS(=O)(=O)c1ccc(F)cc1)c1ccccc1", "note": "(stereo not drawn)", "Potency": "inconclusive: 3.98 µM [activator, single point]"}
{"molecule": "Cc1occc1-c1nnc(SCC(=O)c2c[nH]c3ccccc23)n1C", "activation": "inactive: -17.4%"}
{"molecule": "CCOC(=O)NNc1cc(C(F)(F)F)ccn1", "Potency": "inconclusive: 3.55 µM [activator, single point]"}
{"molecule": "COC(C[C@H](O)C[C@H](O)[C@H](C)OCc1ccccc1)OC", "Potency": "inconclusive: 2.82 µM [activator, partial curve, poor fit]"}
{"molecule": "O=C(Nc1ccc2c(c1)OCO2)c1n[nH]c(=O)c2ccccc12", "Potency": "inconclusive: 11.2 µM [activator, partial curve, poor fit]"}
{"molecule": "COc1ccc(NC(=O)CN2C(=O)NC(C)(c3ccc4c(c3)OCCO4)C2=O)cc1S(N)(=O)=O", "note": "(stereo not drawn)", "Potency": "inconclusive: 5.01 µM [activator, single point]"}
{"molecule": "O=C(O)c1ccc(-n2cc(-c3cc4ccccc4oc3=O)[nH]c2=S)cc1", "activation": "inactive: 57.2%"}
{"molecule": "COc1cc(C(=O)NCCc2c[nH]c3ccccc23)ccc1OCc1c(C)noc1C", "Potency": "inconclusive: 28.2 µM [activator, single point]"}
{"molecule": "COc1ccc([N+](=O)[O-])cc1NC(=O)C1CCCNC1=O", "note": "(stereo not drawn)", "Potency": "inconclusive: 0.631 µM [activator, full curve, poor fit]"}
{"molecule": "O=C(N/N=C/c1cc(Br)cc(Br)c1O)c1cccc(S(=O)(=O)N2CCOCC2)c1", "activation": "inactive: -12.7%"}
{"molecule": "COc1ccc(OCC(O)CN2CCCC2)cc1", "note": "(stereo not drawn)", "Potency": "inconclusive: 3.98 µM [activator, partial curve, poor fit]"}
{"molecule": "CCn1c(N)c(C(=O)COC(=O)CCc2nc3ccccc3c(=O)[nH]2)c(=O)[nH]c1=O", "Potency": "inconclusive: 11.2 µM [activator, partial curve, poor fit]"}
{"molecule": "Cc1ccc(NC(=O)COC(=O)CNC(=O)c2ccc3ccccc3c2)c([N+](=O)[O-])c1", "Potency": "inconclusive: 28.2 µM [activator, single point]"}
{"molecule": "CC1=CC=CC2=NC(=O)CC(C)(C(=O)O)N12", "note": "(stereo not drawn)", "Potency": "inconclusive: 14.1 µM [activator, single point]"}
